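Each compound is printed as two spots on a slide made to bind it covalently, so it has no test concentration; the read-out is fluorescence of the bound, labelled oligonucleotide. The data file lists only calls. An earlier report of the laboratory on the PreQ1, TPP and SAM-II riboswitches (doi:10.1038/s41467-019-09493-3) used 1 µM RNA for 2 h and required a mean Z-score above 3 (spot signal-to-noise against the whole library), a score well above that on a control array, and duplicate spots agreeing (coefficient of variation under 100); it then also set aside compounds that hit other targets, which this list keeps. The cut-offs behind this list may differ. The calls come from the array alone, and fixing a compound to the slide can hide its binding.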 “active” means called a hit, “inactive” means screened and not called a hit. Compounds were drawn at random from those tested, without regard to their results. A target missing from an entry has no call listed here.

Targets, with sequences 5′ to 3′:
PreQ1: PreQ1 riboswitch RNA pseudoknot, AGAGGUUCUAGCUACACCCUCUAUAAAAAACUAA. From B. subtilis. About 170 hits among about 24,000 compounds.
SAM-II: SAM-II riboswitch RNA pseudoknot, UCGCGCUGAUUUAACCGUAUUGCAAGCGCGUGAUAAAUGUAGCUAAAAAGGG. About 200 hits among about 21,000 compounds.
TPP: TPP riboswitch RNA three-way junction, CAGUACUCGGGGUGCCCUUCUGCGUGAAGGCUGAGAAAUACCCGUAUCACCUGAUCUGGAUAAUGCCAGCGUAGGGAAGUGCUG. About 160 hits among about 24,000 compounds.

For Fc1cccc(-c2nnn3c2nc(NC2CCCC2)c2ccccc23)c1 the calls were PreQ1: inactive; SAM-II: inactive; TPP: inactive.
For Cc1ccc(-c2csc(NC3OC(=O)c4ccccc43)n2)cc1 (stereo unspecified) the calls were PreQ1: inactive; SAM-II: inactive; TPP: inactive.
For COc1cccc(-c2[nH]c3c(C#N)cnn3c2NCCC(C)C)c1 the calls were PreQ1: inactive; TPP: inactive.
For CN[C@@H](C)C(=O)N(Cc1ccc(SC)cc1)C1CC1 the calls were PreQ1: inactive; SAM-II: inactive; TPP: inactive.
For CCOC(=O)C1CCCN(c2c(NCCCc3ccccc3)c(=O)c2=O)C1 (stereo unspecified) the calls were PreQ1: inactive; TPP: inactive.
For Cc1ccc2nc(NCc3ccccc3)c(-c3noc(C)n3)cc2c1 the calls were PreQ1: inactive; TPP: inactive.
For CCNc1nc2c(c(=O)n(C)c(=O)n2C)n1CCC(C)C the calls were PreQ1: inactive; SAM-II: inactive; TPP: inactive.
For Cc1cccc(=O)n1CCCNC(=O)CCc1cc2n(n1)CCNC2 the calls were PreQ1: inactive; SAM-II: inactive; TPP: inactive.
For CC(C)n1cnc2cc(NCc3cccc4ccccc34)ccc21 the calls were PreQ1: inactive; SAM-II: inactive; TPP: inactive.
For CNCc1ccc(-c2ccc(F)c(Cl)c2)o1 the calls were PreQ1: inactive; TPP: inactive.
For c1ccc(-c2nnc3n2CCN(Cc2cc4n(n2)CCCNC4)CC3)cc1 the calls were PreQ1: inactive; SAM-II: inactive; TPP: inactive.
For Cc1nnc(-c2cccc(-n3c(CO)nc4ccccc43)c2)s1 the calls were PreQ1: inactive; SAM-II: inactive; TPP: inactive.
For Cc1c(C(=O)N2CCOC3(CNCCOC3)C2)sc2ccccc12 (stereo unspecified) the calls were PreQ1: inactive; SAM-II: inactive; TPP: inactive.
For Nc1cc(=O)nc(SCC(=O)Nc2cccc(Cl)c2)n1CCc1ccccc1 the calls were PreQ1: inactive; SAM-II: inactive; TPP: inactive.
For C[C@@]1(O)CCN(C2CCN(c3ccc(F)cc3)CC2)C[C@@H]1O the calls were PreQ1: inactive; SAM-II: inactive; TPP: inactive.
For CCNc1nc2c(c(=O)n(C)c(=O)n2C)n1Cc1ccc(F)cc1 the calls were PreQ1: inactive; SAM-II: inactive; TPP: inactive.
For CCn1nnc(-c2ccc(C(=O)O)c(N)c2)n1 the calls were PreQ1: inactive; SAM-II: inactive; TPP: inactive.
For CNCC(O)c1ccc(O)cc1 (stereo unspecified) the calls were PreQ1: inactive; SAM-II: inactive; TPP: inactive.
For COc1ccc(OC)c(C(=O)c2oc3ccc(OC)cc3c2N)c1 the calls were PreQ1: inactive; SAM-II: inactive; TPP: inactive.
For CCc1cc(C(C)=NOCc2ccc(C3CCCCC3)c(C(F)(F)F)c2)ccc1CN1CC(C(=O)O)C1 the calls were PreQ1: inactive; SAM-II: inactive; TPP: inactive.
For Nc1cc(C(=O)N2CC[C@@]3(O)CCN(C(=O)N4CCCC4)C[C@H]3C2)ccn1 the calls were PreQ1: inactive; SAM-II: inactive; TPP: inactive.
For CCN(CC)c1ccc2c(c1)OC(N)=C(C#N)C2c1ccncc1 (stereo unspecified) the calls were PreQ1: inactive; SAM-II: inactive; TPP: inactive.
For N#Cc1cnn2c(NC3CCCCC3)c(-c3ccc(Cl)cc3)[nH]c12 the calls were PreQ1: inactive; TPP: inactive.
For COc1ccc(C)cc1-n1nnc(-c2nc(-c3ccc(F)cc3)no2)c1N the calls were PreQ1: inactive; TPP: inactive.
For Nc1nc2c3ccccc3nc(Cc3ccccc3)n2n1 the calls were PreQ1: inactive; SAM-II: inactive; TPP: inactive.
For Cc1ccc2nc(Cc3ccc(N)cc3)oc2c1 the calls were PreQ1: inactive; SAM-II: inactive; TPP: inactive.
For O=S(=O)(NCCO)c1cccc2cccnc12 the calls were PreQ1: inactive; SAM-II: inactive; TPP: inactive.
For Nc1nc(CNC(=O)c2cc(-c3ccc(F)cc3)n[nH]2)n[nH]1 the calls were PreQ1: inactive; SAM-II: inactive; TPP: inactive.
For COc1cc(CN2CCN(c3cc(N)ncn3)CC2CCO)cc(OC)c1 (stereo unspecified) the calls were PreQ1: inactive; SAM-II: inactive; TPP: inactive.
For C=CCn1c(NCCCOC)nc2c1c(=O)n(C)c(=O)n2C the calls were PreQ1: inactive; SAM-II: inactive; TPP: inactive.
For CC[C@@H]1C(=O)N(C)c2cnc(Nc3ccc(C(=O)NC4CCC(N5CCN(CC6CC6)CC5)CC4)cc3OC)nc2N1C(C)C (stereo partly specified) the calls were PreQ1: inactive; SAM-II: inactive; TPP: inactive.
For Nc1c(C(=O)c2ccccc2)oc2ccc(Br)cc12 the calls were PreQ1: inactive; SAM-II: inactive; TPP: inactive.
For Cc1c(Cn2c(C)nc3c(C(=O)O)cc(N4CCOCC4)cc32)cccc1C(F)(F)F the calls were PreQ1: inactive; SAM-II: inactive; TPP: inactive.
For COc1ccccc1Nc1nc(-c2ccccn2)cs1 the calls were PreQ1: inactive; SAM-II: inactive; TPP: inactive.
For CCN(C)C(=O)Oc1cccc([C@H](C)N(C)C)c1 the calls were PreQ1: inactive; SAM-II: inactive; TPP: inactive.
For Cc1ccc(OCc2nc(C#N)c(NCCN3CCOCC3)o2)cc1 the calls were PreQ1: inactive; SAM-II: inactive; TPP: inactive.
For CCn1ccnc1CO the calls were PreQ1: inactive; SAM-II: inactive; TPP: inactive.
For N#Cc1c2c(c(NCCCN3CCOCC3)n3c1nc1ccccc13)CCCC2 the calls were PreQ1: inactive; SAM-II: inactive; TPP: inactive.
For COc1ccc(CNCc2sc(C(=O)O)cc2C)cc1OC the calls were PreQ1: inactive; TPP: inactive.
For Cc1ccc(F)c(NC(=O)CCC(=O)NCC2(CO)CCOCC2)c1 the calls were PreQ1: inactive; SAM-II: inactive; TPP: inactive.

Some entries from above, unchanged:

- CCn1ccnc1CO | PreQ1: inactive; SAM-II: inactive; TPP: inactive
- COc1ccc(CNCc2sc(C(=O)O)cc2C)cc1OC | PreQ1: inactive; TPP: inactive
- Nc1nc2c3ccccc3nc(Cc3ccccc3)n2n1 | PreQ1: inactive; SAM-II: inactive; TPP: inactive
- COc1cc(CN2CCN(c3cc(N)ncn3)CC2CCO)cc(OC)c1 (stereo unspecified) | PreQ1: inactive; SAM-II: inactive; TPP: inactive

From ROBIN, a set of small-molecule microarray screens (doi:10.1002/anie.202211358).